Source: patent US20030229204A1
These are yes or no findings as the source states them, for the method shown. For some assays here: In cells and extracts the contact can be indirect. Some entries that bind do so weakly or less than the wild type. For some assays here: Sequences can lack the tags named with a protein.

Protein sequences, listed by entry. Tags and fused reporters are not part of them.
UniProt P37238: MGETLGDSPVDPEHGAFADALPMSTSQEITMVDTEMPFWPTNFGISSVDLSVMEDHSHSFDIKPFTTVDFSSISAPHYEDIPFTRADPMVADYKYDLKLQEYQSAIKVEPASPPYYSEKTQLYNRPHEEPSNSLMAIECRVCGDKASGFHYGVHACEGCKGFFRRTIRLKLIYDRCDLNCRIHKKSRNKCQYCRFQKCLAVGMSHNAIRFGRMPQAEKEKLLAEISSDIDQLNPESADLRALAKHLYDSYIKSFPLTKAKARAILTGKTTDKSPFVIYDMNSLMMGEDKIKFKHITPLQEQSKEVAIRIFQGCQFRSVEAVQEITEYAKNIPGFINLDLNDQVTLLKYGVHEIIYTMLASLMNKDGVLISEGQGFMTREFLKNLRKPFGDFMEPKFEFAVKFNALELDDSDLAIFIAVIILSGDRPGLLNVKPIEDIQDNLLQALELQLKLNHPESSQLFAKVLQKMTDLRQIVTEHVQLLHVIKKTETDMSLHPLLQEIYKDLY

Legend:
[1] = biological target: GAL4 DNA-binding domain fused to amino acids 183-505 of murine PPARγ (murine) (UniProt P04386+P37238); assay: yeast two-hybrid screen, β-galactosidase filter assay
[2] = biological target: PPARγ (UniProt P37238); assay: co-immunoprecipitation from transfected COS cells: anti-PPARγ immunoprecipitation, anti-HA Western blot
[3] = biological target: PPARγ (UniProt P37238); assay: summary of the in vitro binding assays of Example IV
[4] = biological target: PPARγ (UniProt P37238); assay: GST pull-down of in vitro-translated 35S-labeled receptor, autoradiography
[5] = biological target: GST-PPARγ fusion protein (immobilized PPARγ) (UniProt P37238); assay: pull-down of in vitro-translated PGC-1 with immobilized PPARγ
[6] = biological target: GST-PPARγ fusion protein (immobilized PPARγ) (UniProt P37238); assay: pull-down of in vitro-translated 35S-labeled PGC-1 with immobilized GST-PPARγ
[7] = biological target: GST-PPARγ fusion protein (immobilized PPARγ) (UniProt P37238); assay: pull-down of in vitro-translated 35S-labeled PGC-1 deletion with immobilized GST-PPARγ

B1: partial PGC-1 clone (nucleotides 610 to 3066 of SEQ ID NO:1) in the GAL4 activation domain plasmid pACT II (protein, not shown: large carriers)
chain: RIRTNPAIVKTENSWSNKAKSICQQQKPQRRPCSELLKYLTTNDDPPHTKPTENRNSSRDKCASKKKSHTQPQSQHAQAKPTTLSLPLTPESPNDPKGSPFENKTIERTLSVELSGTAGLTPPTTPPHKANQDNPFKASPKLKPSCKTVVPPPTKRARYSECSGTQGSHSTKKGPEQSELYAQLSKSSGLSRGHEERKTKRPSLRLFGDHDYCQSLNSKTDILINISQELQDSRQLDFKDASCDWQGHICSSTDSGQCYLRETLEASKQVSPCSTRKQLQDQEIRAELNKHFGHPCQAVFDDKSDKTSELRDGDFSNEQFSKLPVFINSGLAMDGLFDDSEDESDKLSYPWDGTQPYSLFDVSPSCSSFNSPCRDSVSPPKSLFSQRPQRMRSRSRSFSRHRSCSRSPYSRSRSRSPGSRSSSRSCYYYESSHYRHRTHRNSPLYVRSRSRSPYSRRPRYDSYEAYEHERLKRDEYRKEHEKRESERAKQRERQKQKAIEERRVIYVGKIRPDTTRTELRDRFEVFGEIEECTVNLRDDGDSYGFITYRYTCDAFAALENGYTLRRSNETDFELYFCGRKQFFKSNYADLDTNSDDFDPASTKSKYDSLDFDSLLKEAQRSLRR
In the case of B1, the binding [1] is reported as “binds”.

B2: HA-tagged full-length PGC-1 (protein, not shown: small tags and cut ends)
chain: MAWDMCSQDSVWSDIECAALVGEDQPLCPDLPELDLSELDVNDLDTDSFLGGLKWCSDQSEIISNQYNNEPANIFEKIDEENEANLLAVLTETLDSLPVDEDGLPSFDALTDGAVTTDNEASPSSMPDGTPPPQEAEEPSLLKKLLLAPANTQLSYNECSGLSTQNHAANHTHRIRTNPAIVKTENSWSNKAKSICQQQKPQRRPCSELLKYLTTNDDPPHTKPTENRNSSRDKCASKKKSHTQPQSQHAQAKPTTLSLPLTPESPNDPKGSPFENKTIERTLSVELSGTAGLTPPTTPPHKANQDNPFKASPKLKPSCKTVVPPPTKRARYSECSGTQGSHSTKKGPEQSELYAQLSKSSGLSRGHEERKTKRPSLRLFGDHDYCQSLNSKTDILINISQELQDSRQLDFKDASCDWQGHICSSTDSGQCYLRETLEASKQVSPCSTRKQLQDQEIRAELNKHFGHPCQAVFDDKSDKTSELRDGDFSNEQFSKLPVFINSGLAMDGLFDDSEDESDKLSYPWDGTQPYSLFDVSPSCSSFNSPCRDSVSPPKSLFSQRPQRMRSRSRSFSRHRSCSRSPYSRSRSRSPGSRSSSRSCYYYESSHYRHRTHRNSPLYVRSRSRSPYSRRPRYDSYEAYEHERLKRDEYRKEHEKRESERAKQRERQKQKAIEERRVIYVGKIRPDTTRTELRDRFEVFGEIEECTVNLRDDGDSYGFITYRYTCDAFAALENGYTLRRSNETDFELYFCGRKQFFKSNYADLDTNSDDFDPASTKSKYDSLDFDSLLKEAQRSLRR
B2 was tested, and the binding [2] was “binds”.

B3: PGC-1 (aa 36-797) fused to GST (protein, not shown: a dimerising Fc or GST)
chain: LSELDVNDLDTDSFLGGLKWCSDQSEIISNQYNNEPANIFEKIDEENEANLLAVLTETLDSLPVDEDGLPSFDALTDGAVTTDNEASPSSMPDGTPPPQEAEEPSLLKKLLLAPANTQLSYNECSGLSTQNHAANHTHRIRTNPAIVKTENSWSNKAKSICQQQKPQRRPCSELLKYLTTNDDPPHTKPTENRNSSRDKCASKKKSHTQPQSQHAQAKPTTLSLPLTPESPNDPKGSPFENKTIERTLSVELSGTAGLTPPTTPPHKANQDNPFKASPKLKPSCKTVVPPPTKRARYSECSGTQGSHSTKKGPEQSELYAQLSKSSGLSRGHEERKTKRPSLRLFGDHDYCQSLNSKTDILINISQELQDSRQLDFKDASCDWQGHICSSTDSGQCYLRETLEASKQVSPCSTRKQLQDQEIRAELNKHFGHPCQAVFDDKSDKTSELRDGDFSNEQFSKLPVFINSGLAMDGLFDDSEDESDKLSYPWDGTQPYSLFDVSPSCSSFNSPCRDSVSPPKSLFSQRPQRMRSRSRSFSRHRSCSRSPYSRSRSRSPGSRSSSRSCYYYESSHYRHRTHRNSPLYVRSRSRSPYSRRPRYDSYEAYEHERLKRDEYRKEHEKRESERAKQRERQKQKAIEERRVIYVGKIRPDTTRTELRDRFEVFGEIEECTVNLRDDGDSYGFITYRYTCDAFAALENGYTLRRSNETDFELYFCGRKQFFKSNYADLDTNSDDFDPASTKSKYDSLDFDSLLKEAQRSLRR
B3 was tested, and the binding [3] was “binds” and the binding [4] was “binds”.

B4: full-length mouse PGC-1 (aa 1-797) (protein)
chain: MAWDMCSQDSVWSDIECAALVGEDQPLCPDLPELDLSELDVNDLDTDSFLGGLKWCSDQSEIISNQYNNEPANIFEKIDEENEANLLAVLTETLDSLPVDEDGLPSFDALTDGAVTTDNEASPSSMPDGTPPPQEAEEPSLLKKLLLAPANTQLSYNECSGLSTQNHAANHTHRIRTNPAIVKTENSWSNKAKSICQQQKPQRRPCSELLKYLTTNDDPPHTKPTENRNSSRDKCASKKKSHTQPQSQHAQAKPTTLSLPLTPESPNDPKGSPFENKTIERTLSVELSGTAGLTPPTTPPHKANQDNPFKASPKLKPSCKTVVPPPTKRARYSECSGTQGSHSTKKGPEQSELYAQLSKSSGLSRGHEERKTKRPSLRLFGDHDYCQSLNSKTDILINISQELQDSRQLDFKDASCDWQGHICSSTDSGQCYLRETLEASKQVSPCSTRKQLQDQEIRAELNKHFGHPCQAVFDDKSDKTSELRDGDFSNEQFSKLPVFINSGLAMDGLFDDSEDESDKLSYPWDGTQPYSLFDVSPSCSSFNSPCRDSVSPPKSLFSQRPQRMRSRSRSFSRHRSCSRSPYSRSRSRSPGSRSSSRSCYYYESSHYRHRTHRNSPLYVRSRSRSPYSRRPRYDSYEAYEHERLKRDEYRKEHEKRESERAKQRERQKQKAIEERRVIYVGKIRPDTTRTELRDRFEVFGEIEECTVNLRDDGDSYGFITYRYTCDAFAALENGYTLRRSNETDFELYFCGRKQFFKSNYADLDTNSDDFDPASTKSKYDSLDFDSLLKEAQRSLRR
modifications: [35S]methionine-labeled in the pull-down assays
B4 was tested, and the binding [5] was “binds” and the binding [6] was “binds”.

B5: PGC-1 1-403 (protein)
chain: MAWDMCSQDSVWSDIECAALVGEDQPLCPDLPELDLSELDVNDLDTDSFLGGLKWCSDQSEIISNQYNNEPANIFEKIDEENEANLLAVLTETLDSLPVDEDGLPSFDALTDGAVTTDNEASPSSMPDGTPPPQEAEEPSLLKKLLLAPANTQLSYNECSGLSTQNHAANHTHRIRTNPAIVKTENSWSNKAKSICQQQKPQRRPCSELLKYLTTNDDPPHTKPTENRNSSRDKCASKKKSHTQPQSQHAQAKPTTLSLPLTPESPNDPKGSPFENKTIERTLSVELSGTAGLTPPTTPPHKANQDNPFKASPKLKPSCKTVVPPPTKRARYSECSGTQGSHSTKKGPEQSELYAQLSKSSGLSRGHEERKTKRPSLRLFGDHDYCQSLNSKTDILINISQEL
modifications: [35S]methionine-labeled
With B5 the binding [7] was “binds”.

B6: PGC-1 1-338 (protein)
chain: MAWDMCSQDSVWSDIECAALVGEDQPLCPDLPELDLSELDVNDLDTDSFLGGLKWCSDQSEIISNQYNNEPANIFEKIDEENEANLLAVLTETLDSLPVDEDGLPSFDALTDGAVTTDNEASPSSMPDGTPPPQEAEEPSLLKKLLLAPANTQLSYNECSGLSTQNHAANHTHRIRTNPAIVKTENSWSNKAKSICQQQKPQRRPCSELLKYLTTNDDPPHTKPTENRNSSRDKCASKKKSHTQPQSQHAQAKPTTLSLPLTPESPNDPKGSPFENKTIERTLSVELSGTAGLTPPTTPPHKANQDNPFKASPKLKPSCKTVVPPPTKRARYSECSGT
modifications: [35S]methionine-labeled
With B6 the binding [7] was “binds”.
